Measurements from PMC12014562.
These are yes or no findings as the source states them, for the method shown. In cells and extracts the contact can be indirect. Here binding means that the protein was enriched with, or labelled near, the bait; the list need not be complete. Tags and fused reporters may be left off the sequences shown.

T1: Sll0528-TurboID (site-2 protease Sll0528 fused in-frame to TurboID, line P0528T) (Synechocystis sp. PCC 6803) (UniProt Q55518)
T1 sequence: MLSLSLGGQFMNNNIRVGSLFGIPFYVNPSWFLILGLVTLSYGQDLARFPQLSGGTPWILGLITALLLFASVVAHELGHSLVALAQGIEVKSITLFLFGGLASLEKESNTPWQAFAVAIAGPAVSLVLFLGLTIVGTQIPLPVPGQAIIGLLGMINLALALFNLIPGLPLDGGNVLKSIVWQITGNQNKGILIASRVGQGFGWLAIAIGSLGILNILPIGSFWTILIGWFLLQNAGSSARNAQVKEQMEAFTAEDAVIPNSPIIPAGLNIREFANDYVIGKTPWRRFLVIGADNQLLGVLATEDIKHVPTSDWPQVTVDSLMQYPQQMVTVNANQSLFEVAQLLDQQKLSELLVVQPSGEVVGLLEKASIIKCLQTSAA

B1: nucleoid-associated protein ebfC (Slr1847), endogenous (protein, UniProt P73057 1-114)
chain: MAQGKGFGFGLGKIKELQEAFQKAQQVQEGAKVLQEELERMEIPGKSADGLVTVLMSGNQEPLSIEIDPSALEKGAEGLSASVTEAMKAAYAESTETMRSKMEELTSGLNLPGM
B2: unknown protein Ssl1972, endogenous (protein, UniProt P72925 1-93)
chain: MISIDLTLKYSPMPVSVQRKEKDGAEALYQTIVTAMQGDRPQVLELTCEKQTEKKVAIMSDQISAVIVSEKDGAASAGKVPGFAALGQIVNQG
B3: zinc metalloprotease FtsH (Sll1463), endogenous (protein, UniProt P73437 1-628)
chain: MAIKPQPQWQRRLASVLLWGSTIYLLVNLLAPALFRSQPPQVPYSLFIDQVEGDKVASVYVGQNEIRYQLKPEAEDEGKEKAAEGQILRTTPIFDLELPKRLEAKGIEFAAAPPAKNSWFGTLLSWVIPPLIFVGIWSFFLNRNNNGAPGGALAFTKSKAKVYVEGDSTKVTFDDVAGVEEAKTELSEVVDFLKFPQRYTALGAKIPKGVLLVGPPGTGKTLLAKAAAGEAGVPFFIISGSEFVELFVGAGAARVRDLFEQAKKQAPCIVFIDELDAIGKSRASGAFMGGNDEREQTLNQLLTEMDGFSAAGATVIVLAATNRPETLDPALLRPGRFDRQVLVDRPDLAGRLKILEIYAKKIKLDKEVELKNIATRTPGFAGADLANLVNEAALLAARNKQDSVTEADFREAIERVVAGLEKKSRVLSDKEKKIVAYHEVGHALVGAVMPGGGQVAKISIVPRGMAALGYTLQMPTEDRFLLNESELRDQIATLLGGRAAEEIVFDSITTGAANDLQRATDLAEQMVTTYGMSKVLGPLAYDKGQQNNFLGQGMGNPRRMVSDDTAKEIDLEVKEIVEQGHNQALAILEHNRDLLEAIAEKILEKEVIEGEELHHLLGQVQAPGTLVV
B4: global nitrogen regulator NtcA (Sll1423), endogenous (protein, UniProt P33779 1-225)
chain: MDQSLTQDRPLAAVFRRLGSELMPPVVETFDRSKTIFFPGDPAERVYFLLKGAVKLSRVYEAGEEITVALLRENSVFGVLSLVTGQRSDRFYHAVAFTPVELLSAPIEQVEQALKEHPDLSLLMLQGLSSRILQTEMMIETLAHRDMGSRLVSFLLILCRDFGVPAPDGIRIDLKLSHQAIAEAIGSTRVTVTRLLGDLREGNMISITKKKITVHNPVALSQQFT
B5: probable Clp protease subunit Slr0165, endogenous (protein, UniProt P74467 1-202)
chain: MPIGVPSVPFRLPGSQYERWIDIYTRLSQERIIFLGQEVNDSIANRIVAFLLYLDSDDPSKPIYLYINSPGGSVTAGMAIYDTMQYIKAEVITICVGLAASMGAFLLASGAPGKRLALPHARIMIHQPMGGTGRRQATDIDIEAREILRIRQQLNEIMAQRTGQTVEKIAKDTDRDYFLSAAEAKEYGLIDKVIENSTMGNN
B6: transcription factor RbcR (Sll0998), endogenous (protein, UniProt P73123 1-345)
chain: MSDIPFTLDQLRILKAIASEGSFKRAADTLYVSQPAVSLQVQNLEKQLSVPLFDRGGRKAQLTEAGHLLLNYGEKIITLCQETCRAIEDLQNLQGGTLIVGASQTTGTYLLPRMIGMFRQQYPDVTVQLQVHSTRRTAWGVANGQVDLAIIGGEVPAELQETLTVLPYAEDELALILPVLHPLAQAETIQKEDLYKLKFISLDSQSTIRKVIDKVLSQGEIDTKRLKIEMELNSIEAIKNAVQSGLGAAFVSTTAIEKELEMNVLHIAPIKNVEIRRVLSVIINPNRYRSKASAAFIREVLPQFSTHPDALDPERLFANPYSSNNGDRQGDGKDGKGSIEIDSVT
B7: signal recognition particle protein Slr1531, endogenous (protein, UniProt P74214 1-482)
chain: MFDALADRLEDAWKKLRGQDKISESNIKEALQEVRRALLAADVNLQVVKGFIKDVEQKALGADVISGVNPGQQFIKIVYDELVNLMGESNVPLAQAEQAPTVILMAGLQGTGKTTATAKLALYLRKQKRSALMVATDVYRPAAIDQLKTLGQQIDVPVFDLGSDANPVEIARQGVEKAKELGVDTVLIDTAGRLQIDPQMMAELAEIKQVVKPDDTLLVVDAMTGQEAANLTHTFHEQIGITGAILTKLDGDTRGGAALSVRQISGQPIKFVGVGEKVEALQPFYPDRLASRILNMGDVLTLVEKAQEAIDVGDVEKLQNKILEATFDFDDFIKQMRFMKNMGSLGGLLKMIPGMNKLSSGDIEKGEKELKRTEAMISSMTTEERKNPDLLAKSPSRRRRIAQGSGHSETDVSKLITNFTKMRTMMQQMGMGGMPGGMPGMGAMPGMGGGMFGGQPGPGFRGYRGGGGKPKKKKKKKGFGQL

target: T1, Sll0528-TurboID (site-2 protease Sll0528 fused in-frame to TurboID, line P0528T) (Synechocystis sp. PCC 6803); assay: proximity labelling; Sll0528-TurboID under its native promoter in living Synechocystis line P0528T, without or with 30 min of 90 mM NH4Cl; 500 uM biotin, 15 min, room temperature; biotinylated proteins enriched on a streptavidin column and identified by 4D label-free LC-MS/MS; background control: soluble TurboID in line TBYPC

| binding | Binder |
| --- | --- |
| binds | B1 |
| binds | B2 |
| binds | B3 |
| binds | B4 |
| binds | B5 |
| binds | B6 |
| binds | B7 |
